Assay results taken from PubChem BioAssay AID504444 (National Center for Advancing Translational Sciences (NCATS), 2011).
In all, about 360,000 compounds went through this assay and about 7,500 (2.1%) were called active. The shares of active, inactive and inconclusive entries below differ from those in the screen. The call rests on the fitted dose curve; in most records, active means well fitted inhibition curve with a large enough effect; inconclusive means small, poorly fitted or top-dose-only effect, or effect the other way; inactive means flat fitted curve, though single readings scatter. Potencies beside an inconclusive call are fits to weak or partial responses and may not hold up.

assay: Nrf2 qHTS screen for inhibitors; details: A549 ARE-Fluc reporter, luciferase luminescence, 18-24 h; series mostly up to 46 µM; further: nearly all actives have a fitted effect of over 60% in size
Outline: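 Nrf2 activity is the BugLite luminescence, read 15 min after reagent at room temperature, following CellTiter-Fluor cytotoxicity readout (30 min, 37C). Compound titrations were applied for 18-24 h to 5000 A549 ARE_Fluc cells/well in 5% FBS OPTI-MEM.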
Potency means the concentration at half of the fitted maximal effect.

| SMILES | Potency |
| --- | --- |
| CC1(C)NC(=O)N(CC(=O)OCC(=O)Nc2cccc(S(N)(=O)=O)c2)C1=O | inactive |
| COc1ccccc1-c1nc(C(N)=O)c2[nH]c(=O)n(-c3cccc(C)c3)c2n1 | inconclusive: 29.1 µM [falling, single point] |
| Cc1cc(C(=O)CN2C(=O)C(=O)N(CC(C)C)C2=O)c(C)n1-c1ccccc1F | inconclusive: 32.6 µM [falling, single point] |
| NC1(C#Cc2ccc3c(=O)c4ccccc4sc3c2)CCCCC1 | inconclusive: 3.66 µM [activator, full curve] |
| CC(C)CC(c1nnnn1CC1CCCO1)N1CCN(c2cccc(Cl)c2)CC1 (centres undefined) | inconclusive: 18.4 µM [falling, single point] |
| CCCN1CCN(C(=O)c2oc3ccccc3c2NC(=O)C2CC2)CC1 | inconclusive: 23.1 µM [activator, partial curve] |
| CC(=O)NCCn1c(SCc2cccc([N+](=O)[O-])c2)nc2ccccc2c1=O | inconclusive: 14.6 µM [falling, partial curve, poor fit] |
| Cc1ccc(S(=O)(=O)CCCS(=O)(=O)c2ccc(C)cc2)cc1 | inactive |
| COc1ccc(OC)c(CCNC(=O)CCc2cn(Cc3cc(C)ccc3C)c3ccccc23)c1 | inconclusive: 18.4 µM [falling, single point] |
| CCOC(=O)N1CCC(NC(=O)CSCc2nc(-c3ccc(OC)c(OC)c3)oc2C)CC1 | inactive |
| O=C(Cn1cnc2c(NCc3ccccc3)ncnc21)NCCc1cc2ccccc2[nH]1 | inconclusive: 29.1 µM [falling, single point] |
| Cc1c(Br)c([N+](=O)[O-])nn1CC(=O)N(C)Cc1ccccc1 | inactive |
| c1ccc(OCc2nn3c(Cn4cnc5ccccc54)nnc3s2)cc1 | inconclusive: 13 µM [falling, partial curve, poor fit] |
| CC(C)(C)n1nnnc1C(c1ccccn1)N(Cc1ccccc1)Cc1ccc(Cl)cc1 (centres undefined) | inconclusive: 29.1 µM [falling, single point] |
| CC(C)(C)c1cc(CCC(=O)NCCc2ccccn2)cc(C(C)(C)C)c1O | inactive |
| O=C([O-])c1ccccc1-[n+]1c(-c2ccccc2)cc(-c2ccccc2)cc1-c1ccccc1 | inactive |
| COCCn1c(SCC(=O)Nc2ccccc2OC)nc2ccccc2c1=O | inconclusive: 9.2 µM [falling, partial curve, poor fit] |
| Cc1onc(-c2c(Cl)cccc2Cl)c1C(=O)OCC(=O)c1ccccc1 | inactive |
| Cc1ccc(S(=O)(=O)Nc2cc(=O)[nH]c(SCc3ccccc3Cl)n2)cc1 | inconclusive: 7.31 µM [falling, partial curve] |
| COc1ccc(NC(=O)Cc2ccc(Cl)cc2)cc1NC(=O)c1ccco1 | inconclusive: 1.84 µM [falling, full curve, poor fit] |
| CCCCN(CC)CCNC(=O)CCn1cnc2onc(-c3ccc(F)cc3)c2c1=O | inconclusive: 29.1 µM [activator, single point] |
| CN(Cc1ccccc1)S(=O)(=O)c1ccc(Cl)c(C(=O)NCCc2ccccn2)c1 | inconclusive: 4.11 µM [falling, partial curve, poor fit] |

Individual results from above:
Under Potency, Cc1ccc(S(=O)(=O)Nc2cc(=O)[nH]c(SCc3ccccc3Cl)n2)cc1 is entered as inconclusive: 7.31 µM [falling, partial curve]
Under Potency, NC1(C#Cc2ccc3c(=O)c4ccccc4sc3c2)CCCCC1 is entered as inconclusive: 3.66 µM [activator, full curve]
Under Potency, Cc1onc(-c2c(Cl)cccc2Cl)c1C(=O)OCC(=O)c1ccccc1 is entered as inactive

(list continues)

| SMILES | Potency |
| --- | --- |
| O=C(NC1=NCCS1)c1sc2cc(F)ccc2c1Cl | inconclusive: 2.59 µM [activator, partial curve] |
| COc1ccc(-c2cn3nc(N4CCCC(C(=O)Nc5cc(C)ccc5C)C4)sc3n2)cc1 (centres undefined) | inactive |
| CSc1ccccc1NC(=O)Nc1ccc(Cl)cc1 | active: 7.31 µM |
| CN(C)c1ccc(/C=C/c2nc3ccccc3s2)cc1 | inconclusive: 18.4 µM [falling, single point] |
| O=C(O)C(=O)/C(=C\c1ccc([N+](=O)[O-])cc1)c1ccc2ccccc2n1 | inconclusive: 2.91 µM [activator, full curve] |
| CCOC(=O)C1(Cc2cccc(Cl)c2)CCCN(C(=O)c2cnn(CC)c2)C1 (centres undefined) | inactive |
| COc1ccc(-c2cn(-c3ccc(Cl)cc3)c3[n+]2CCCCC3)cc1 | inactive |
| COc1cc(-c2cc(C(=O)N3CCCCCC3)c3ccccc3n2)cc(OC)c1OC | inconclusive: 23.1 µM [falling, single point] |
| COc1cccc(C2NC(=O)c3n[nH]c(-c4cccs4)c32)c1 (centres undefined) | inconclusive: 20.6 µM [falling, single point] |
| O=C(C[C@@H]1C/C=C/CC[C@H](Cc2ccc(F)cc2)C(=O)O[C@H](c2ccccc2)CNC1=O)NCCO | inactive |
| Brc1ccc(-c2csc(/N=C/N3CCOCC3)n2)cc1 | inconclusive: 32.6 µM [falling, single point] |
| CCC(C(=O)OCC(=O)C1(O)CCC2C3CCC4=CC(=O)CCC4(C)C3C(O)CC21C)C(C)C (centres undefined) | active: 1.16 µM |
| COc1ccc(C(=O)N(Cc2cc(OC)c(OC)c(OC)c2)c2ccccn2)cc1 | inconclusive: 7.31 µM [falling, partial curve] |
| CC1(C)C=Cc2c(c3c(c4c(=O)c(-c5ccc(O)cc5)coc24)OC(C)(C)CC3)O1 | inconclusive: 16.4 µM [falling, single point] |
| COc1ccccc1C(c1nnnn1C(C)(C)C)N1CCCc2ccccc21 (centres undefined) | inconclusive: 16.4 µM [falling, partial curve, poor fit] |
| CCOC(=O)C1CCCN(C(=O)c2ccc3c(c2)N(Cc2ccc(Cl)cc2)C(=O)c2ccccc2S3=O)C1 (centres undefined) | inactive |
| CCCCNC(=O)CCn1c(=O)c2ccccc2n(Cc2cccc(Cl)c2)c1=O | inactive |
| CCOc1ccc(Nc2nc(N)nc(CSC(=S)N3CCN(c4ccccc4)CC3)n2)cc1 | inconclusive: 20.6 µM [falling, partial curve] |
| CC(C)[C@H](NC(N)=O)C(=O)Nc1cccc([N+](=O)[O-])c1 | inactive |
| CCOc1cc(C(=O)N(Cc2ccccc2)c2ccc(C)cc2)ccc1OCC(=O)N1CCOCC1 | inactive |
| O=C(Oc1c(CN2CCOCC2)cc(Cl)c2cccnc12)c1ccc(F)cc1 | active: 23.1 µM |
| Cc1ccc(NC(=O)CCc2ccccc2)cc1S(=O)(=O)N1CCOCC1 | inconclusive: 25.9 µM [falling, partial curve, poor fit] |
